Reference: PubChem BioAssay AID1224826 (NIAID, 2016)

- Assay: 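Genes that change LPS-induced Tnf promoter activity in mouse macrophages when knocked down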 (primary screen)
- Cells: RAW264.7 G9 macrophages from mouse bearing reporters for p65 (GFP) and the Tnf promoter (mCherry)
- Reagents: siRNA pool against mouse genes, 100 nM
- Time to read-out: 16 h of LPS stimulation, after 2 days of siRNA transfection
- Challenge: bacterial lipopolysaccharide (Salmonella minnesota R595), 10 ng/ml
- Measurement: 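Nuclear mCherry signal of the Tnf promoter reporter measured by imaging after background removal, scaled to each plate median and turned into robust z-scores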
- Reading the numbers: Tnf reporter robust z-score: higher = stronger Tnf promoter reporter signal after LPS; Tnf reporter intensity: higher = stronger Tnf promoter reporter signal
- Rule for the call: 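a well counts as active at a score of -1.3 or below (Tlr4 knock-down control median) or above 3 (raised signal); controls and wells holding fewer than 50 cells are excluded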
- Meaning of the calls: active = Tnf reporter clearly lowered or raised; inactive = no clear change in Tnf reporter
Here is one part, drawn at random, of about 17,000 reagents. Over the whole deposit, about 1,110 (6.6%) were called active. 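Active means lowered or raised reporter signal; replicate intensities are raw and not normalised per plate.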 Reagents against one gene are numbered here. Some reagents were tested in more than one well and are listed for each.

| target | reagent | Tnf reporter robust z-score | fewer than 50 cells in well | Tnf reporter intensity, replicate 1 | Tnf reporter intensity, replicate 2 | outcome |
| --- | --- | --- | --- | --- | --- | --- |
| Tnfsf9 | 1 | – | fewer than 50 cells per well; well left out of calls | 14.6 | 43.6 | inactive |
| Pla1a | 1 | 2.48 | enough cells in well | 224 | 252 | inactive |
| Cd160 | 1 | -1.41 | enough cells in well | 158 | 80.9 | active |
| Gpr176 | 1 | -0.18 | enough cells in well | 184 | 310 | inactive |
| Ccs | 1 | 0.72 | enough cells in well | 308 | 258 | inactive |
| Ptprc | 1 | 0.02 | enough cells in well | 213 | 223 | inactive |
| Sphk1 | 1 | -1.08 | enough cells in well | 125 | 97.7 | inactive |
| 1700020N01Rik | 1 | -0.34 | enough cells in well | 176 | 79.8 | inactive |
| Otub2 | 1 | – | fewer than 50 cells per well; well left out of calls | 159 | 41 | inactive |
| Or6k4 | 1 | 1.9 | enough cells in well | 185 | 162 | inactive |
| Ppp1r13b | 1 | 0.34 | enough cells in well | 280 | 209 | inactive |
| Brf2 | 1 | – | fewer than 50 cells per well; well left out of calls | 131 | 178 | inactive |
| Scgb2b27 | 1 | 2.99 | enough cells in well | 129 | 335 | inactive |
| Mipol1 | 1 | -0.1 | enough cells in well | 227 | 222 | inactive |
| Rgs20 | 1 | -0.5 | enough cells in well | 262 | 63.3 | inactive |
| Adamtsl1 | 1 | 0.21 | enough cells in well | 200 | 146 | inactive |
| Or5d20 | 1 | -1.41 | enough cells in well | 77.4 | 95.7 | active |
| Casd1 | 1 | -0.12 | enough cells in well | 136 | 199 | inactive |
| Cldn13 | 1 | -1.71 | enough cells in well | 68.2 | 194 | active |
| Ralb | 1 | -0.87 | enough cells in well | 254 | 121 | inactive |
| Prb1b | 1 | 0.59 | enough cells in well | 158 | 152 | inactive |
| Prb1b | 2 | 0.88 | enough cells in well | 264 | 409 | inactive |
| Eif3i | 1 | -2.09 | enough cells in well | 65.6 | 70.1 | active |
| Sertad3 | 1 | 2.49 | enough cells in well | 234 | 134 | inactive |
| Acap3 | 1 | -0.29 | enough cells in well | 141 | 169 | inactive |
| Dcun1d5 | 1 | 1.92 | enough cells in well | 192 | 113 | inactive |
| Phf6 | 1 | -0.18 | enough cells in well | 213 | 196 | inactive |
| Pck2 | 1 | 0.89 | enough cells in well | 246 | 214 | inactive |
| Pck2 | 1 | – | fewer than 50 cells per well; well left out of calls | 149 | 80.9 | inactive |
| Myo19 | 1 | -0.86 | enough cells in well | 157 | 56.4 | inactive |
| Gli1 | 1 | -0.69 | enough cells in well | 182 | 93.9 | inactive |
| Cmpk1 | 1 | – | fewer than 50 cells per well; well left out of calls | 131 | 139 | inactive |
| Cmpk1 | 1 | 0.91 | enough cells in well | 427 | 77.6 | inactive |
| Arf6 | 1 | -0.39 | enough cells in well | 186 | 101 | inactive |
| Cct5 | 1 | -0.35 | enough cells in well | 203 | 197 | inactive |
| Xpo6 | 1 | 1.77 | enough cells in well | 169 | 232 | inactive |
| Tas1r3 | 1 | -0.75 | enough cells in well | 208 | 64.7 | inactive |
| Smpdl3b | 1 | – | fewer than 50 cells per well; well left out of calls | 61.2 | 0 | inactive |
| BC107364 | 1 | 2.69 | enough cells in well | 349 | 316 | inactive |
| Slc10a2 | 1 | 0.58 | enough cells in well | 300 | 147 | inactive |

Not a retest: an excerpt of the list.
| target | reagent | Tnf reporter robust z-score | fewer than 50 cells in well | Tnf reporter intensity, replicate 1 | Tnf reporter intensity, replicate 2 | outcome |
| --- | --- | --- | --- | --- | --- | --- |
| Prb1b | 2 | 0.88 | enough cells in well | 264 | 409 | inactive |
| Eif3i | 1 | -2.09 | enough cells in well | 65.6 | 70.1 | active |
| Sertad3 | 1 | 2.49 | enough cells in well | 234 | 134 | inactive |
| Acap3 | 1 | -0.29 | enough cells in well | 141 | 169 | inactive |
| Dcun1d5 | 1 | 1.92 | enough cells in well | 192 | 113 | inactive |
